Results are given in words; binding and its absence hold for the method and conditions named. Binding seen in cells or lysates may run through a third protein. Some results given as binding are weak or reduced against the parent protein; the word gives no strength.

Chains of the proteins cited; added tags and fusions are not shown. Lines headed by an entry give the natural chain unless they say otherwise; changes in a name come on top.
UniProt P29067: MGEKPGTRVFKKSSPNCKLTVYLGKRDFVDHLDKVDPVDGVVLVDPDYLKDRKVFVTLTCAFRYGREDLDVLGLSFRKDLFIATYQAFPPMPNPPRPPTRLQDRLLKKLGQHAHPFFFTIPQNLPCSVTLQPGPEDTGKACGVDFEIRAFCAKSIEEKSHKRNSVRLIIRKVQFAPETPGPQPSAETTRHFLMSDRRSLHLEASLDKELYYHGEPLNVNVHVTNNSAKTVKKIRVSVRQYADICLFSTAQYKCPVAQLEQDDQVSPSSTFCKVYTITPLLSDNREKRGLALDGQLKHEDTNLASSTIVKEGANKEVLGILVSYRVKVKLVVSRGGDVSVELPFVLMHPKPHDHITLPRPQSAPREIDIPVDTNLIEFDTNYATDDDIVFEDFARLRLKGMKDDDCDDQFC

This assay addresses L395Q ARRB2-YFP (UniProt P29067). The experiment in a line: co-IP; lysates of transfected HEK293 cells on GFP-Trap magnetic beads (anti-GFP VHH) overnight at 4 °C, three washes in RIPA buffer, eluates immunoblotted; GFP plasmid as negative control.

B1: treacle protein (TCOF1) (protein, UniProt Q13428 1-1488)
chain: MAEARKRRELLPLIYHHLLRAGYVRAAREVKEQSGQKCFLAQPVTLLDIYTHWQQTSELGRKRKAEEDAALQAKKTRVSDPISTSESSEEEEEAEAETAKATPRLASTNSSVLGADLPSSMKEKAKAETEKAGKTGNSMPHPATGKTVANLLSGKSPRKSAEPSANTTLVSETEEEGSVPAFGAAAKPGMVSAGQADSSSEDTSSSSDETDVEGKPSVKPAQVKASSVSTKESPARKAAPAPGKVGDVTPQVKGGALPPAKRAKKPEEESESSEEGSESEEEAPAGTRSQVKASEKILQVRAASAPAKGTPGKGATPAPPGKAGAVASQTKAGKPEEDSESSSEESSDSEEETPAAKALLQAKASGKTSQVGAASAPAKESPRKGAAPAPPGKTGPAVAKAQAGKREEDSQSSSEESDSEEEAPAQAKPSGKAPQVRAASAPAKESPRKGAAPAPPRKTGPAAAQVQVGKQEEDSRSSSEESDSDREALAAMNAAQVKPLGKSPQVKPASTMGMGPLGKGAGPVPPGKVGPATPSAQVGKWEEDSESSSEESSDSSDGEVPTAVAPAQEKSLGNILQAKPTSSPAKGPPQKAGPVAVQVKAEKPMDNSESSEESSDSADSEEAPAAMTAAQAKPALKIPQTKACPKKTNTTASAKVAPVRVGTQAPRKAGTATSPAGSSPAVAGGTQRPAEDSSSSEESDSEEEKTGLAVTVGQAKSVGKGLQVKAASVPVKGSLGQGTAPVLPGKTGPTVTQVKAEKQEDSESSEEESDSEEAAASPAQVKTSVKKTQAKANPAAARAPSAKGTISAPGKVVTAAAQAKQRSPSKVKPPVRNPQNSTVLARGPASVPSVGKAVATAAQAQTGPEEDSGSSEEESDSEEEAETLAQVKPSGKTHQIRAALAPAKESPRKGAAPTPPGKTGPSAAQAGKQDDSGSSSEESDSDGEAPAAVTSAQVIKPPLIFVDPNRSPAGPAATPAQAQAASTPRKARASESTARSSSSESEDEDVIPATQCLTPGIRTNVVTMPTAHPRIAPKASMAGASSSKESSRISDGKKQEGPATQVSKKNPASLPLTQAALKVLAQKASEAQPPVARTQPSSGVDSAVGTLPATSPQSTSVQAKGTNKLRKPKLPEVQQATKAPESSDDSEDSSDSSSGSEEDGEGPQGAKSAHTLGPTPSRTETLVEETAAESSEDDVVAPSQSLLSGYMTPGLTPANSQASKATPKLDSSPSVSSTLAAKDDPDGKQEAKPQQAAGMLSPKTGGKEAASGTTPQKSRKPKKGAGNPQASTLALQSNITQCLLGQPWPLNEAQVQASVVKVLTELLEQERKKVVDTTKESSRKGWESRKRKLSGDQPAARTPRSKKKKKLGAGEGGEASVSPEKTSTTSKGKAKRDKASGDVKEKKGKGSLGSQGAKDEPEEELQKGMGTVEGGDQSNPKSKKEKKKSDKRKKDKEKKEKKKKAKKASTKDSESPSQKKKKKKKKTAEQTV
With B1, the binding result is given as “binds”.

The values are drawn from publication PMC7956682.
